Source: paper PMC4423191
Results are given in words; binding and its absence hold for the method and conditions named. Binding seen in cells or lysates may run through a third protein. Some binding calls cover weakened binding; strength is not graded here.

Amino acid sequences for entries named in this document (tags omitted).
UniProt Q9BUH6: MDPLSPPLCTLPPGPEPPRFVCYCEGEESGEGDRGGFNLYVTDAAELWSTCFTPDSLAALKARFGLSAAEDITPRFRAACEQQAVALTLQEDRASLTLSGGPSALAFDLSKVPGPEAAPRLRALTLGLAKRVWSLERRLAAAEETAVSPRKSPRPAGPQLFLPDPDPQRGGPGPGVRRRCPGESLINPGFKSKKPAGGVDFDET
UniProt Q13426: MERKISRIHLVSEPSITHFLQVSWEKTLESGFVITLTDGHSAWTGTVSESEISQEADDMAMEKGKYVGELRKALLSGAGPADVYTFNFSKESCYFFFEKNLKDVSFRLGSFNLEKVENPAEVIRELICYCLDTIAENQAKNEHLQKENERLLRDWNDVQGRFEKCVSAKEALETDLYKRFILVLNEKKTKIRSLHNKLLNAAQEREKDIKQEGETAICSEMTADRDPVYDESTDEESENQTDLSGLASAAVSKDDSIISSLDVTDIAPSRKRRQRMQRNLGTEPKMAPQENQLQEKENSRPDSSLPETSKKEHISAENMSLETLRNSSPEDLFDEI

Molecular target: FLAG-tagged XLS (c9orf142) (human) (UniProt Q9BUH6)
Assay: co-IP; anti-FLAG IP of FLAG-XLS from nuclear extracts of transiently transfected HEK293S cells (untreated or 10 Gy X-ray, 30 min recovery), FLAG peptide elution, immunoblot; control pCMX-LacZ

With XRCC4 (from UniProt Q13426 1-336) the binding was “binds”.
